In assay [1] the target is full-length glutathione-S-transferase (GST)-PRMT6 (UniProt Q96LA8). Briefly: pull-down; recombinant GST-PRMT6 on glutathione beads; in vitro translated 35S-labeled TAL1 or fragments; SDS-PAGE and autoradiography; only the target purified.
For another assay, the target named is FLAG-tagged TAL1 (UniProt P17542). In words: co-IP; extracts of transiently transfected HEK293T cells; lysis buffer 50 mM Tris pH 7.5, 150 mM NaCl, 0.1% Igepal, 1 mM EDTA; benzonase digest; anti-FLAG magnetic beads, 4 °C, 2 h; Western blot. In general terms: Immunoblotting shows a protein as a band on a membrane.

Amino acid sequences for entries named in this document (tags omitted). A change or cut given only in a name is not applied to a line headed by its entry.
UniProt Q96LA8: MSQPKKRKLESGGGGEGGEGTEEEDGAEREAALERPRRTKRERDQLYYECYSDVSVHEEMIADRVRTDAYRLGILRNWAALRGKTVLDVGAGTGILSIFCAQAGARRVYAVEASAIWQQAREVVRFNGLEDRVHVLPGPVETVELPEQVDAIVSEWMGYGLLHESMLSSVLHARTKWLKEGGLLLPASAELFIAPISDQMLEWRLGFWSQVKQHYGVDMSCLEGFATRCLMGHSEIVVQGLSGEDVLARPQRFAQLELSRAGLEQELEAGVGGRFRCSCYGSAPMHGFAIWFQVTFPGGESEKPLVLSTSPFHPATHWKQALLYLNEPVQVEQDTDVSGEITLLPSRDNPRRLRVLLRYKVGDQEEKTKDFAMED
UniProt P17542: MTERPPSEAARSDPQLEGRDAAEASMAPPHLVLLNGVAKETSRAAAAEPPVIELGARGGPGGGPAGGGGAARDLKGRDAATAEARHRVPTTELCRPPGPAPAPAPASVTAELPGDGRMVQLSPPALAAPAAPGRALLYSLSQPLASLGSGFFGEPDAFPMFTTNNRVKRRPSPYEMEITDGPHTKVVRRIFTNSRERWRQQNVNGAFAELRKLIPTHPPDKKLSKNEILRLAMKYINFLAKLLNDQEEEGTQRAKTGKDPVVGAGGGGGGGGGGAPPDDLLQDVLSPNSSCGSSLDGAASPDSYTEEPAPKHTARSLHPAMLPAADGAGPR

The values that follow come from article PMC11847539.

Results are given in words; binding and its absence hold for the method and conditions named. In cells and extracts the contact can be indirect. Some results given as binding are weak or reduced against the parent protein; the word gives no strength.

Regarding “TAL1 aa160-331 (from UniProt P17542 160-331) (domain or fragment)”, in assay [1], the binding result is “binds”.
Regarding “in vitro translated 35S-labeled full-length TAL1 (1-331) (from UniProt P17542 1-331)”, the binding result in assay [1] is “binds”.
Same read-out and setting: the value for “TAL1 aa176-331 (from UniProt P17542 176-331) (domain or fragment)” was “no binding”.
As for “HA-tagged PRMT6 (from UniProt Q96LA8 1-375) (enzyme)”, the binding result with FLAG-tagged TAL1 is given as “binds”.
